Experimental data: PMC4468577
These are yes or no findings as the source states them, for the method shown. In cells and extracts the contact can be indirect. Some entries that bind do so weakly or less than the wild type. Values belong to the binder of their own block, whether it stands above or below them.

Sequences of proteins named here, by UniProt entry; tags and fusion partners are left off. A change or cut given only in a name is not applied to a line headed by its entry.
UniProt Q3TCV3: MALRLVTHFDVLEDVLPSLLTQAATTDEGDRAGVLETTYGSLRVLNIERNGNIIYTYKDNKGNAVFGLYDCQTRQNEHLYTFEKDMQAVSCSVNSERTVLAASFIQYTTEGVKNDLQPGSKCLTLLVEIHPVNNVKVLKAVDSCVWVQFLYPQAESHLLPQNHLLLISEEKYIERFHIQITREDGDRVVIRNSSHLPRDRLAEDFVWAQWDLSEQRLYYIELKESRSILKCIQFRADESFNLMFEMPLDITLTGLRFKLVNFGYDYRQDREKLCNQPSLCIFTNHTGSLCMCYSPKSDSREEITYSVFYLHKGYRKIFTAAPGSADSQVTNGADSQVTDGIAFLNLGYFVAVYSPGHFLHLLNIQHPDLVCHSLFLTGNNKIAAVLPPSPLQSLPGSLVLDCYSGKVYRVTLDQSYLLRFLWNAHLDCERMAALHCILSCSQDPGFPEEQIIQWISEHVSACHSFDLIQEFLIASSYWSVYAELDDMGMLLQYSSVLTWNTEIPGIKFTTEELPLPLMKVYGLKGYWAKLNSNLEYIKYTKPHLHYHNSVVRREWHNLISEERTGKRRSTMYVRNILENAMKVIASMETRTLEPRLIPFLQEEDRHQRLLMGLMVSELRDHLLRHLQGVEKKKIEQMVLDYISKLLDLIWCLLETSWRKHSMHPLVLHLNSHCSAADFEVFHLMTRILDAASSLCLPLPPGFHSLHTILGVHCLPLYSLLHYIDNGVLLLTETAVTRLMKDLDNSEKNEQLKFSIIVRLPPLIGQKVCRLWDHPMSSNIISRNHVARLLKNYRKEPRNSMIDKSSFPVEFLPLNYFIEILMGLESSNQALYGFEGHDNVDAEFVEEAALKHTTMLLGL

Molecular target: γ-secretase activating protein (GSAP) (mouse (endogenous in N2A)) (UniProt Q3TCV3)
Assay: co-IP; N2A-APPswe cell lysates (50 mM HEPES, 150 mM NaCl, 5 mM MgCl2, 5 mM CaCl2, CHAPSO diluted to 0.25%); 5 μg anti-GSAP antibody for 3 hr at room temperature, then Dynabeads M-280 sheep anti-rabbit IgG overnight at 4 °C; blotted for 5LO or 12-15LO

binding: binds
B1: 5-Lipoxygenase (5LO) (enzyme, UniProt P09917 1-674)
chain: MPSYTVTVATGSQWFAGTDDYIYLSLVGSAGCSEKHLLDKPFYNDFERGAVDSYDVTVDEELGEIQLVRIEKRKYWLNDDWYLKYITLKTPHGDYIEFPCYRWITGDVEVVLRDGRAKLARDDQIHILKQHRRKELETRQKQYRWMEWNPGFPLSIDAKCHKDLPRDIQFDSEKGVDFVLNYSKAMENLFINRFMHMFQSSWNDFADFEKIFVKISNTISERVMNHWQEDLMFGYQFLNGCNPVLIRRCTELPEKLPVTTEMVECSLERQLSLEQEVQQGNIFIVDFELLDGIDANKTDPCTLQFLAAPICLLYKNLANKIVPIAIQLNQIPGDENPIFLPSDAKYDWLLAKIWVRSSDFHVHQTITHLLRTHLVSEVFGIAMYRQLPAVHPIFKLLVAHVRFTIAINTKAREQLICECGLFDKANATGGGGHVQMVQRAMKDLTYASLCFPEAIKARGMESKEDIPYYFYRDDGLLVWEAIRTFTAEVVDIYYEGDQVVEEDPELQDFVNDVYVYGMRGRKSSGFPKSVKSREQLSEYLTVVIFTASAQHAAVNFGQYDWCSWIPNAPPTMRAPPPTAKGVVTIEQIVDTLPDRGRSCWHLGAVWALSQFQENELFLGMYPEEHFIEKPVKEAMARFRKNLEAIVSVIAERNKKKQLPYYYLSPDRIPNSVAI

binding: no binding
B2: 12-15LO (enzyme, UniProt P39654 1-663)
chain: MGVYRIRVSTGDSVYAGSNNEVYLWLIGQHGEASLGKLFRPCRNSEAEFKVDVSEYLGPLLFVRVQKWHYLKEDAWFCNWISVKGPGDQGSEYTFPCYRWVQGTSILNLPEGTGCTVVEDSQGLFRNHREEELEERRSLYRWGNWKDGTILNVAATSISDLPVDQRFREDKRLEFEASQVLGTMDTVINFPKNTVTCWKSLDDFNYVFKSGHTKMAERVRNSWKEDAFFGYQFLNGANPMVLKRSTCLPARLVFPPGMEKLQAQLDEELKKGTLFEADFFLLDGIKANVILCSQQYLAAPLVMLKLQPDGQLLPIAIQLELPKTGSTPPPIFTPLDPPMDWLLAKCWVRSSDLQLHELQAHLLRGHLVAEVFAVATMRCLPSVHPVFKLLVPHLLYTMEINVRARSDLISERGFFDKVMSTGGGGHLDLLKQAGAFLTYSSLCPPDDLAERGLLDIDTCFYAKDALQLWQVMNRYVVGMFDLYYKTDQAVQDDYELQSWCQEITEIGLQGAQDRGFPTSLQSRAQACHFITMCIFTCTAQHSSIHLGQLDWFYWVPNAPCTMRLPPPKTKDATMEKLMATLPNPNQSTLQINVVWLLGRRQAVMVPLGQHSEEHFPNPEAKAVLKKFREELAALDKEIEIRNKSLDIPYEYLRPSLVENSVAI
